According to paper PMC3095302:
These are yes or no findings as the source states them, for the method shown.

What was measured:
DDB1b = biological target: T1, DDB1b (UniProt O49552); test: two-hybrid; yeast two-hybrid assay; bait, prey and conditions not told
T1 sequence: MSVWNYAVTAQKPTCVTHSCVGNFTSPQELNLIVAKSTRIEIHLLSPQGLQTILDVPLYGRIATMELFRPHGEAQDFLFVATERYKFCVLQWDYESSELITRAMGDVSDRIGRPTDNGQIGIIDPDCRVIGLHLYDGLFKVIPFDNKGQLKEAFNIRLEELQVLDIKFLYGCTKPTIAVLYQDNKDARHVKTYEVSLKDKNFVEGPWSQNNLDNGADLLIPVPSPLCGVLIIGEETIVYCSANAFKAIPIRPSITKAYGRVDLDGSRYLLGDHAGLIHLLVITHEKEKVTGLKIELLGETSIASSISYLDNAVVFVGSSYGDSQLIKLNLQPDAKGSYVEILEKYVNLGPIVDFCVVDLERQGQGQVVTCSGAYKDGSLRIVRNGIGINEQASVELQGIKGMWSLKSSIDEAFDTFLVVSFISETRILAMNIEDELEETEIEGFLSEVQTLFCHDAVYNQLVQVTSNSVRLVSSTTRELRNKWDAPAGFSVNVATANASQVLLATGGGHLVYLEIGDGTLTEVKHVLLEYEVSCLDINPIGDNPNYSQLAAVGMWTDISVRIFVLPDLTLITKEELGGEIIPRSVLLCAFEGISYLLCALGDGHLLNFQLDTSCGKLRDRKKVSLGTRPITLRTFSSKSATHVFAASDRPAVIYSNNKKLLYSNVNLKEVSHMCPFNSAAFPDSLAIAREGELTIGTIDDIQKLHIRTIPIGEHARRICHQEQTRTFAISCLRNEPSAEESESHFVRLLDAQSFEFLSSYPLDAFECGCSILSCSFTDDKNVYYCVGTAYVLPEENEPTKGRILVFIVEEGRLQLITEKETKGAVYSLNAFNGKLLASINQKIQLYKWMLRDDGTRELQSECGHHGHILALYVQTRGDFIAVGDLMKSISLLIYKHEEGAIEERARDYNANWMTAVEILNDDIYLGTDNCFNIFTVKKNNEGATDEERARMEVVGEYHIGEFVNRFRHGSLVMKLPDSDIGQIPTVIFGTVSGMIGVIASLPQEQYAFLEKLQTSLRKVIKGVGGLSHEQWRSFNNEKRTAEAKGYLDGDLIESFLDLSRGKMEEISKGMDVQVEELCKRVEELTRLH

DDB1a = biological target: T2, DDB1a (UniProt Q9M0V3); test: as above
T2 sequence: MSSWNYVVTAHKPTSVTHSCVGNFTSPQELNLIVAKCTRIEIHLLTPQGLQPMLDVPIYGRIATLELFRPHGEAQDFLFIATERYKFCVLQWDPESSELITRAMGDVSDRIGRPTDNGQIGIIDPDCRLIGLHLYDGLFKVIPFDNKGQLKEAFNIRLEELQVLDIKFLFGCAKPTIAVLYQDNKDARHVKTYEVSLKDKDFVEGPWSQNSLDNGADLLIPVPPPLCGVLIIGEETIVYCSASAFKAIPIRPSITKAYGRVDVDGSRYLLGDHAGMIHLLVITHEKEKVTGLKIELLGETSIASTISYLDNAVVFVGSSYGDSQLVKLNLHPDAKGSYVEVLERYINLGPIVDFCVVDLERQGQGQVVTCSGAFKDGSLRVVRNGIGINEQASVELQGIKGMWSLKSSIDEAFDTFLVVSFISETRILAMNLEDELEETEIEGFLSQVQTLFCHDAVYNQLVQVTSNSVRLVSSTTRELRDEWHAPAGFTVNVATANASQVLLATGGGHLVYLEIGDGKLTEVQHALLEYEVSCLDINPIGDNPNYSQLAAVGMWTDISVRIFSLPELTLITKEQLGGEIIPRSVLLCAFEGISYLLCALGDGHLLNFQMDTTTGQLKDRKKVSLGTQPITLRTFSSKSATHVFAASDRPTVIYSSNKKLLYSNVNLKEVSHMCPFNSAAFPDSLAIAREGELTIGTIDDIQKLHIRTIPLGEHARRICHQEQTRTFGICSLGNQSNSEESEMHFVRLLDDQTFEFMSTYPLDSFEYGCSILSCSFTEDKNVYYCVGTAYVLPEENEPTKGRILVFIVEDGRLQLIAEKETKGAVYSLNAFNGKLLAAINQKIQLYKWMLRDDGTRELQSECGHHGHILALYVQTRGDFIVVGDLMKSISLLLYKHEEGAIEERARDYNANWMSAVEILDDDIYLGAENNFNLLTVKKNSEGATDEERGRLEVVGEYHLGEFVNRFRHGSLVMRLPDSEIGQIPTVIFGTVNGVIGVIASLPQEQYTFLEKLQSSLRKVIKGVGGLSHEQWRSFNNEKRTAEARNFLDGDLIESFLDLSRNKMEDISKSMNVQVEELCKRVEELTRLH

binding (DDB1b): no binding | binding (DDB1a): no binding
Substance: YAO WD-repeat domain (Arabidopsis thaliana) (domain or fragment)
